Source: publication PMC4526233
No constants are given. Whether binding was seen depends on the method and setting. Binding seen in cells or lysates may run through a third protein. Some results given as binding are weak or reduced against the parent protein; the word gives no strength. Tags and fused reporters may be left off the sequences shown.

Amino acid sequences for entries named in this document (tags omitted).
UniProt Q92598: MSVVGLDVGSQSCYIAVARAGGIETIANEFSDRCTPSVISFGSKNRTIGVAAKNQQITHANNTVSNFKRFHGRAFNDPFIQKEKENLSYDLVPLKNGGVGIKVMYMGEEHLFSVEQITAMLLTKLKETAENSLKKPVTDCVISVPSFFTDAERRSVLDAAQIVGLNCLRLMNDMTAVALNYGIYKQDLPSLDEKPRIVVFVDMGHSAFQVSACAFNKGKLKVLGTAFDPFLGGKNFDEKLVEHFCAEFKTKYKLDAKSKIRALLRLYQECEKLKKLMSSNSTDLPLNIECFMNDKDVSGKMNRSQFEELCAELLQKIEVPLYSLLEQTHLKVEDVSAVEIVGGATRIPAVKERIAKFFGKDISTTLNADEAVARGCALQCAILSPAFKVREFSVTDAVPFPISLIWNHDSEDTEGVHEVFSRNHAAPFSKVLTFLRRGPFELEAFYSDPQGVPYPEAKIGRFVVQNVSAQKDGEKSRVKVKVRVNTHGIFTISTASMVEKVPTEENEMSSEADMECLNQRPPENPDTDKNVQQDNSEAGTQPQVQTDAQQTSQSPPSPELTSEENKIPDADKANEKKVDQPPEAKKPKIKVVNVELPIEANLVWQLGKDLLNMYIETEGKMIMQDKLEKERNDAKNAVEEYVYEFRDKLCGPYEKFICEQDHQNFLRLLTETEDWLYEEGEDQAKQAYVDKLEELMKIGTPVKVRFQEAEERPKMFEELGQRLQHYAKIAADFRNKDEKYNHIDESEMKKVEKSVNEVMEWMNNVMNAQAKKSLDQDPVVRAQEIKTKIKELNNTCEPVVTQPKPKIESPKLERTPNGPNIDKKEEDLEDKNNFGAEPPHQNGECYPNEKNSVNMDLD

Target: T1, 3x-FLAG tagged B14 (B14-3xF) (UniProt Q8TBM8)
T1 sequence: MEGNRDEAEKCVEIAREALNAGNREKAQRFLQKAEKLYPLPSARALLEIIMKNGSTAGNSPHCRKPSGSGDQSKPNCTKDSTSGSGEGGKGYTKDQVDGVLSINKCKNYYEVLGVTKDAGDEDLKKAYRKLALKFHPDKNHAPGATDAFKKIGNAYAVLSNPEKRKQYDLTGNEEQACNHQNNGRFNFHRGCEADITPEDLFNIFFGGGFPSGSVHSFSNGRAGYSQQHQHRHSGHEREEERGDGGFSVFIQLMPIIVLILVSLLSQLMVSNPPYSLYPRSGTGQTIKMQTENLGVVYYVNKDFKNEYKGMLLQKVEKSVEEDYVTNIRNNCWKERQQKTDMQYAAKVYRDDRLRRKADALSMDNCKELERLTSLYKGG
Assay: co-IP

For “Hsp105 (endogenous, Flp-In 293 T-Rex cells) (from UniProt Q92598 1-858)”, the binding was “binds”.
